From PubChem BioAssay AID248 (DTP/NCI, 2004)
The list does not hold the whole screen: its compounds were picked by chemical class. Not every dose and run of a compound is shown. T/C is the treated group as % of the vehicle group. For survival time, this PubChem deposit counts one and a half times the control or more as active, and values a quarter to a half above the control carry no call in these data; other NCI protocols may use other cut-offs. Some T/C values are marked as having no survivor count here; that says nothing about deaths at the dose. Schedule codes are those of the source, read here as Q, the interval in days (D) or hours (H), X, the number of doses. Some doses were run more than once; the values are given in rising order.

Test system: L1210 leukemia ip in BDF1 mice, survival T/C
Test: NCI In Vivo Anticancer Drug Screen. Data for tumor model L1210 Leukemia (intraperitoneal) in B6D2F1 (BDF1) mice
Details: T/C endpoint: mean survival time, higher T/C = longer survival
[1] = dose: 12.5 mg/kg/injection, schedule: Q01DX001 (ip), vehicle: saline
[2] = dose: 25.0 mg/kg/injection, schedule: Q01DX001 (ip), vehicle: saline

For `CN(C)CC1(COC(=O)C(O)(c2ccccc2)c2ccccc2)CCC1`, which T/C (dose: 6.0 mg/kg/injection, schedule: Q04DX003 (ip), vehicle: Klucel (hydroxypropylcellulose) (HPC)) is on record?
The T/C was 102 % of control [survivor count not shown].

And the T/C (dose: 12.0 mg/kg/injection, schedule: Q04DX003 (ip), vehicle: Klucel (hydroxypropylcellulose) (HPC))?
Its T/C is 98 % of control [survivor count not shown].

And the T/C (dose: 25.0 mg/kg/injection, schedule: Q04DX003 (ip), vehicle: Klucel (hydroxypropylcellulose) (HPC))?
The T/C was 112 % of control [survivor count not shown].

How did the T/C (dose: 3.13 mg/kg/injection, schedule: Q01DX009 (ip), vehicle: saline) turn out when `Cc1cc(C)cc(CN(CCCl)CCCl)c1` was run?
Its T/C is 115 [survivor count not shown] and 120 % of control [survivor count not shown].

And the T/C (dose: 6.25 mg/kg/injection, schedule: Q01DX009 (ip), vehicle: saline)?
The T/C was 122 [survivor count not shown] and 123 % of control [survivor count not shown].

And the T/C (dose: 6.25 mg/kg/injection, schedule: Q04DX003 (ip), vehicle: saline)?
Its T/C is 100 % of control [survivor count not shown].

What about the T/C (dose: 12.5 mg/kg/injection, schedule: Q01DX009 (ip), vehicle: saline) of the same compound?
Its T/C is 124 % of control [survivor count not shown].

And the T/C (dose: 12.5 mg/kg/injection, schedule: Q04DX003 (ip), vehicle: saline)?
Its T/C is 113 % of control [survivor count not shown].

And the T/C (dose: 25.0 mg/kg/injection, schedule: Q04DX003 (ip), vehicle: saline)?
The T/C was 110 % of control [survivor count not shown].

Which T/C [1] does the source give for `CCCCCCN(CCCl)CCCl` here?
The T/C was 116 % of control [survivor count not shown].

What about the T/C [2] of the same compound?
The T/C was 118 % of control [survivor count not shown].

How did the T/C (dose: 34.0 mg/kg/injection, schedule: Q01DX001 (ip), vehicle: carboxymethylcellulose (CMC)) turn out when `Oc1ccc2ccccc2c1CN(CCCl)CCCl` was run?
The T/C was 125 % of control [survivor count not shown].

What about the T/C (dose: 44.0 mg/kg/injection, schedule: Q01DX009 (ip), vehicle: carboxymethylcellulose (CMC)) of the same compound?
The T/C was 120 % of control [survivor count not shown].

What about the T/C (dose: 52.0 mg/kg/injection, schedule: Q01DX001 (ip), vehicle: carboxymethylcellulose (CMC)) of the same compound?
The T/C was 119 % of control [survivor count not shown].

What about the T/C (dose: 66.0 mg/kg/injection, schedule: Q01DX009 (ip), vehicle: carboxymethylcellulose (CMC)) of the same compound?
The T/C was 108 % of control [survivor count not shown].

And the T/C (dose: 78.0 mg/kg/injection, schedule: Q01DX001 (ip), vehicle: carboxymethylcellulose (CMC))?
Its T/C is 130 % of control [survivor count not shown].

And the T/C (dose: 100.0 mg/kg/injection, schedule: Q01DX001 (ip), vehicle: carboxymethylcellulose (CMC))?
Its T/C is 116 % of control [survivor count not shown].

And the T/C (dose: 118.0 mg/kg/injection, schedule: Q01DX001 (ip), vehicle: carboxymethylcellulose (CMC))?
The T/C was 125 [survivor count not shown] and 130 % of control [survivor count not shown].

What about the T/C (dose: 177.0 mg/kg/injection, schedule: Q01DX001 (ip), vehicle: carboxymethylcellulose (CMC)) of the same compound?
The T/C was 135 [survivor count not shown] and 160 % of control [survivor count not shown].

And the T/C (dose: 200.0 mg/kg/injection, schedule: Q01DX001 (ip), vehicle: carboxymethylcellulose (CMC))?
The T/C was 117 % of control [survivor count not shown].

What about the T/C (dose: 266.0 mg/kg/injection, schedule: Q01DX001 (ip), vehicle: carboxymethylcellulose (CMC)) of the same compound?
The T/C was 132 [survivor count not shown] and 144 % of control [survivor count not shown].

And the T/C (dose: 400.0 mg/kg/injection, schedule: Q01DX001 (ip), vehicle: carboxymethylcellulose (CMC))?
Its T/C is 134 [survivor count not shown], 135 [survivor count not shown], 137 % of control [survivor count not shown].

What about the T/C (dose: 600.0 mg/kg/injection, schedule: Q01DX001 (ip), vehicle: carboxymethylcellulose (CMC)) of the same compound?
The T/C was 141 % of control [survivor count not shown].

What does the source list for `ClCCN(CCCl)C1CCCCC1`?
T/C (dose: 0.29 mg/kg/injection, schedule: Q01DX009 (ip), vehicle: saline): 128 % of control [survivor count not shown]; T/C (dose: 0.29 mg/kg/injection, schedule: Q04DX003 (ip), vehicle: saline): 102 % of control [survivor count not shown]; T/C (dose: 0.44 mg/kg/injection, schedule: Q01DX009 (ip), vehicle: saline): 140 % of control [survivor count not shown]; T/C (dose: 0.44 mg/kg/injection, schedule: Q04DX003 (ip), vehicle: saline): 113 % of control [survivor count not shown]; T/C (dose: 0.5 mg/kg/injection, schedule: Q01DX001 (ip), vehicle: saline): 106 % of control [survivor count not shown]; T/C (dose: 0.66 mg/kg/injection, schedule: Q01DX009 (ip), vehicle: saline): 154 % of control [survivor count not shown]; T/C (dose: 0.66 mg/kg/injection, schedule: Q04DX003 (ip), vehicle: saline): 116 % of control [survivor count not shown]; T/C (dose: 0.7 mg/kg/injection, schedule: Q01DX015 (ip), vehicle: saline): 121 % of control [survivor count not shown]; T/C (dose: 1.0 mg/kg/injection, schedule: Q01DX001 (ip), vehicle: saline): 104 % of control [survivor count not shown]; T/C (dose: 1.0 mg/kg/injection, schedule: Q01DX009 (ip), vehicle: saline): 103 [survivor count not shown] and 130 % of control [survivor count not shown]; T/C (dose: 1.0 mg/kg/injection, schedule: Q04DX003 (ip), vehicle: saline): 116 % of control [survivor count not shown]; T/C (dose: 1.3 mg/kg/injection, schedule: Q01DX015 (ip), vehicle: saline): 134 % of control [survivor count not shown]; T/C (dose: 1.5 mg/kg/injection, schedule: Q01DX009 (ip), vehicle: saline): 109 % of control [survivor count not shown]; T/C (dose: 1.8 mg/kg/injection, schedule: Q01DX001 (ip), vehicle: saline): 110 % of control [survivor count not shown]; T/C (dose: 2.0 mg/kg/injection, schedule: Q01DX001 (ip), vehicle: saline): 125 % of control [survivor count not shown]; T/C (dose: 2.1 mg/kg/injection, schedule: Q01DX015 (ip), vehicle: saline): 136 % of control [survivor count not shown]; T/C (dose: 3.0 mg/kg/injection, schedule: Q01DX001 (ip), vehicle: saline): 119 % of control [survivor count not shown]; T/C (dose: 3.5 mg/kg/injection, schedule: Q01DX015 (ip), vehicle: saline): 93 % of control [survivor count not shown]; T/C (dose: 4.0 mg/kg/injection, schedule: Q01DX001 (ip), vehicle: saline): 128 % of control [survivor count not shown]; T/C (dose: 5.0 mg/kg/injection, schedule: Q01DX001 (ip), vehicle: saline): 125 [survivor count not shown] and 141 % of control [survivor count not shown]; T/C (dose: 7.0 mg/kg/injection, schedule: Q01DX001 (ip), vehicle: saline): 130 % of control [survivor count not shown]; T/C (dose: 8.0 mg/kg/injection, schedule: Q01DX001 (ip), vehicle: saline): 142 % of control [survivor count not shown]; T/C (dose: 10.0 mg/kg/injection, schedule: Q01DX001 (ip), vehicle: saline): 148 % of control [survivor count not shown]; T/C (dose: 85.0 micrograms/kg/injection, schedule: Q01DX009 (ip), vehicle: saline): 100 % of control [survivor count not shown]; T/C (dose: 128.0 micrograms/kg/injection, schedule: Q01DX009 (ip), vehicle: saline): 105 % of control [survivor count not shown]; T/C (dose: 193.0 micrograms/kg/injection, schedule: Q01DX009 (ip), vehicle: saline): 103 % of control [survivor count not shown]

Which T/C (dose: 25.0 mg/kg/injection, schedule: Q04DX003 (ip), vehicle: saline with Tween-80) does the source give for `O=C(CCN1CCC(OC(=O)C(O)(c2ccccc2)c2ccccc2)CC1)NCc1ccccc1` here?
The T/C was 112 % of control [survivor count not shown].

And the T/C (dose: 50.0 mg/kg/injection, schedule: Q04DX003 (ip), vehicle: saline with Tween-80)?
The T/C was 96 % of control [survivor count not shown].

And the T/C (dose: 100.0 mg/kg/injection, schedule: Q04DX003 (ip), vehicle: saline with Tween-80)?
The T/C was 87 [survivor count not shown] and 92 % of control [survivor count not shown].

What does the source list for `CCCCCN(CCCl)CCCl`?
T/C [1]: 122 % of control [survivor count not shown]; T/C [2]: 90 % of control [survivor count not shown]

What does the source list for `CN1CCC(COC(=O)C(O)(c2ccccc2)c2ccccc2)CC1`?
T/C (dose: 20.0 mg/kg/injection, schedule: Q01DX001 (ip), vehicle: Klucel (hydroxypropylcellulose) (HPC)): 96 % of control [survivor count not shown]; T/C (dose: 40.0 mg/kg/injection, schedule: Q01DX001 (ip), vehicle: Klucel (hydroxypropylcellulose) (HPC)): 98 % of control [survivor count not shown]; T/C (dose: 80.0 mg/kg/injection, schedule: Q01DX001 (ip), vehicle: Klucel (hydroxypropylcellulose) (HPC)): 95 % of control [survivor count not shown]; T/C (dose: 100.0 mg/kg/injection, schedule: Q01DX001 (ip), vehicle: Klucel (hydroxypropylcellulose) (HPC)): 100 % of control [survivor count not shown]
